Some of the results follow. Shown are side measurements of this screen, not its main read-out; they come without a call. Compounds called inactive in the main read-out are mostly missing here. Words in brackets tell the shape of the fitted curve; partial curves, single points and poor fits give uncertain potencies.
Experiment: qHTS Assay for Lipid Storage Modulators in Drosophila S3 Cells;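 for cell number change: cells counted by Cell Tracker Red CMTPX staining in the red channel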
Details: BODIPY lipid droplet fluorescence, 18-24 h; for cell number change: measured here: cell count max response, cells fed with added oleic acid
In short: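 Laser-scanning cytometry quantifies lipid droplet accumulation (500–530 nm total intensity; droplet/cell object ratio) in oleic acid-fed (400 uM added) Drosophila S3 cells treated with a concentration series. 20 uM Triacsin C defined 100% inhibition.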

[1] = measured here: lipid fluorescence (Fed channel) AC50, cells fed with added oleic acid
[2] = measured here: cell number channel AC50, cells fed with added oleic acid

Structure (SMILES)	cell number change	AC50 [1]	AC50 [2]
Cc1ccc(OCC(=O)NN=C2C3CC4CC(C3)CC2C4)cc1	7.57%	–	–
CCOc1ccc(NC(=S)N=Nc2c(O)[nH]c3ccccc23)cc1	45.1%	4.11 µM [rising, full curve, poor fit]	–
O=C(COC(=O)C1(c2ccc(Cl)cc2)CCCC1)N1CCc2ccccc21	3.19%	–	–
CCOc1ccccc1OCC(=O)OCC(=O)c1c(C)[nH]c2ccccc12	31.7%	–	11.6 µM [rising, partial curve]
CCCc1ccc(C(=O)Cn2nc(C(=O)O)c3ccccc3c2=O)cc1	23%	–	–
COc1ccc(OC)c(NC(=O)c2nnn(Cc3ccccc3C)c2N)c1	–	0.731 µM [rising, single point]	–
c1ccc(-n2c(-c3ccco3)nnc2N2CCOCC2)cc1	-1.81%	6.51 µM [falling, single point]	–
O=C(C1CC1)N1CCc2cc(Br)cc(S(=O)(=O)NCc3ccccn3)c21	12.9%	–	–
COc1ccc(CNC(=O)CCc2nc3cc(S(=O)(=O)N(C)C)ccc3n2C)cc1OC	–	5.17 µM [falling, single point]	–
Cc1onc(-c2ccccc2Cl)c1C(=O)Nc1ccc(Br)cc1	-6.09%	14.6 µM [falling, partial curve, poor fit]	–
O=C(CSc1nnnn1C1CCCCC1)Nc1cccc(NC(=O)c2ccco2)c1	–	–	1.84 µM [rising, partial curve]
CC(=O)Nc1ccc(NC(=O)CSc2nnc(NC(=O)C3CC3)s2)cc1	15.2%	6.51 µM [rising, single point]	–
N#CC1(NC(=O)Cn2cc(C(F)(F)F)ccc2=O)CCCC1	-6.39%	–	–
COc1ccc(-n2c(=O)[nH]cc(C(=O)Nc3ccc4c(c3)OCO4)c2=O)cc1OC	19.4%	1.84 µM [rising, full curve, poor fit]	1.64 µM [rising, partial curve, poor fit]
CCOC(=O)c1oc2ccccc2c1CSc1nnnn1-c1ccc(OC)cc1	–	0.326 µM [rising, partial curve, poor fit]	0.731 µM [rising, single point]
COc1cc(C2NC(=O)C(C#N)=C(S)N2c2ccccc2)ccc1OC(C)C (stereo not drawn)	-18.6%	16.4 µM [falling, single point]	–

One compound at a time, as listed above.
CCOc1ccc(NC(=S)N=Nc2c(O)[nH]c3ccccc23)cc1 as listed: cell number change: 45.1%; AC50 [1]: 4.11 µM [rising, full curve, poor fit]
CCOC(=O)c1oc2ccccc2c1CSc1nnnn1-c1ccc(OC)cc1 as listed: AC50 [1]: 0.326 µM [rising, partial curve, poor fit]; AC50 [2]: 0.731 µM [rising, single point]

Remaining list, next part

Structure (SMILES)	cell number change	AC50 [1]	AC50 [2]
C[C@@H]1CCCCCCCCC(=O)OCCN1C(=O)OC(C)(C)C	-45.6%	–	20.6 µM [falling, single point]
CCOc1ccc(NC(=O)CN(C)C(=O)c2ccc(N3CCOCC3)c([N+](=O)[O-])c2)cc1OCC	–	–	3.66 µM [falling, single point]
Nc1nnc(SCC(=O)Nc2cccc(S(=O)(=O)N3CCOCC3)c2)s1	–	0.259 µM [rising, partial curve, poor fit]	–
O=C(CN(Cc1ccc(F)cc1)C(=O)CNS(=O)(=O)c1ccc(F)cc1)NCc1ccco1	0.84%	20.6 µM [rising, single point]	–
O=C(NC1CCCCC1)C(c1ccco1)N(Cc1ccco1)C(=O)c1ccco1 (stereo not drawn)	–	1.64 µM [falling, partial curve]	–
Cc1ccc(NC(=O)c2oc3ccccc3c2NC(=O)C2CCCO2)cc1C (stereo not drawn)	17.7%	0.411 µM [rising, partial curve, poor fit]	–
CN1CCN(C(=O)/C(=C/c2ccc(F)cc2)c2ccsc2)CC1	–	–	1.84 µM [rising, partial curve]
O=C(Cn1nc(C(F)(F)F)c2c1CCCC2)NCCN1CCOCC1	0.318%	1.03 µM [falling, full curve]	6.51 µM [falling, single point]
CCN(CC(=O)NCc1ccc(Cl)cc1)C(=O)/C=C/c1ccccc1	12.1%	23.1 µM [rising, single point]	–
O=S(=O)(NCc1ccccc1)c1cccs1	-82.6%	–	18.4 µM [falling, single point]
CCC1CN(C(=O)NCc2ccc(C)cc2)c2cc(C)ccc2O1 (stereo not drawn)	–	29.1 µM [rising, single point]	1.64 µM [rising, partial curve]
O=C(Nc1cccnc1)C1CCCN1S(=O)(=O)c1ccc(Cl)c(Cl)c1 (stereo not drawn)	-21%	–	–
Cc1nnc2sc(SCc3ccccc3)nn2c1=O	-10.5%	0.103 µM [falling, full curve, poor fit]	–
Cc1ccc(/C=N/NC(=O)Cc2ccc(Cl)cc2)s1	-25.2%	0.58 µM [falling, single point]	–
O=C(CCNC(=O)Cn1ccc2ccccc2c1=O)NCCc1ccccc1Cl	-22.4%	16.4 µM [falling, partial curve, poor fit]	–
Cc1ccc(NC(=O)NC2(C(=O)NCc3ccccc3)CCCCC2)cc1	11.8%	13 µM [rising, partial curve]	–
